Source: patent publication US8372847B2, “Pyrazinone modulator of corticotropin-releasing factor receptor activity” (Bristol-Myers Squibb Company, priority 2008, dated 2013)
Not every detail of the peptide structures is certain; ends, links or a residue may be inferred. Peptide text beside a SMILES is read from it.

By UniProt entry, the sequences of proteins in these tests, tags left out. Residues count along the entry.
UniProt B8Q4Z9, 1-411: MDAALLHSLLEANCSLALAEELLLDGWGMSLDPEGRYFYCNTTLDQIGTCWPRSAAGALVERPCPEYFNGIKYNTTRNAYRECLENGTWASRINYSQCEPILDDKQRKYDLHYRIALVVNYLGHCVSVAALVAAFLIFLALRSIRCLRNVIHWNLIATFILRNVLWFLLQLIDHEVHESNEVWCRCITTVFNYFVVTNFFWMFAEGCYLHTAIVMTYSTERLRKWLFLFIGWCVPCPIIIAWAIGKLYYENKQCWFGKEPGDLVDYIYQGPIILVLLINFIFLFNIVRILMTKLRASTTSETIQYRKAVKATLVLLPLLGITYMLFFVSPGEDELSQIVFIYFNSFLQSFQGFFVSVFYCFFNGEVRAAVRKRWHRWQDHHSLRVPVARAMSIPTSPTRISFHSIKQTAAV

Target: T1, CRF2 receptor (Sus scrofa, UniProt B8Q4Z9)
T1 construct: the CRF2 receptors endogenously expressed on the porcine choroid plexus membrane; from tissue; host or cells: porcine choroid plexus
Assay: CRF2 binding assay, 125I-sauvagine competition, porcine choroid plexus membrane
Conditions: n=3; read-out: IC50 at CRF2 receptors of porcine choroid plexus membrane
Method: CRF2 Binding Assay. Frozen porcine choroid plexus was thawed rapidly in assay buffer containing 50 mM Hopes (pH 7.0 at 23° C.), 10 mM MgCl2, 2 mM EGTA, 1 μg/ml aprotinin, 1 μg/ml leupeptin, 1 μg/ml pepstatin A, 0.005% Triton X-100, 10 U/ml bacitracin and 0.1% ovalbumin and homogenized. The suspension was centrifuged at 32000×g for 30 minutes. The resulting supernatant was discarded and the pellet resuspended by homogenization in assay buffer and centrifuged again. The supernatant was discarded and the pellet resuspended by homogenization in assay buffer and frozen at −70° C. On the day of the experiment aliquots of the homogenate were thawed quickly and 10 μg/well added to 100 pM ^125I-sauvagine and drugs in a total volume of 100 μl assay buffer. The assay mixture was incubated for 2 hr at 21° C. Bound and free radioligand were then separated by rapid filtration using glass fiber filters (Whatman GF/B, pretreated with 0.3% PEI) on a Brandel Cell Harvester. Filters were then washed multiple times with ice cold wash buffer (PBS w/o Ca^2+ and Mg^2+, 0.01% Triton X-100 (pH 7.0 at 23° C.)). Non-specific binding was defined using 1 μM α-helical CRF (9-41). Filters were then counted in a Wallac Wizard gamma counter. IC50 values were determined in a five point (five drug concentrations) competition assay using non-linear regression by Microsoft Excel-fit.
Binding Results. […]

CSCC[C@H](NC(=O)[C@H](CCC(=O)O)NC(=O)[C@H](CC(C)C)NC(=O)[C@H](CCSC)NC(=O)[C@H](CCC(=O)O)NC(=O)[C@H](CCCNC(=N)N)NC(=O)[C@H](CC(C)C)NC(=O)[C@H](CC(C)C)NC(=O)[C@H](Cc1cnc[nH]1)NC(=O)[C@H](Cc1ccccc1)NC(=O)[C@@H](NC(=O)[C@H](CC(C)C)NC(=O)[C@@H](N)CC(=O)O)[C@@H](C)O)C(=O)N[C@@H](C)C(=O)N[C@@H](CCCCN)C(=O)N[C@@H](C)C(=O)N[C@@H](CCC(=O)O)C(=O)N[C@@H](CCC(N)=O)C(=O)N[C@@H](CCC(=O)O)C(=O)N[C@@H](C)C(=O)N[C@@H](CCC(=O)O)C(=O)N[C@@H](CCC(N)=O)C(=O)N[C@@H](C)C(=O)N[C@@H](C)C(=O)N[C@@H](CC(C)C)C(=O)N[C@@H](CC(N)=O)C(=O)N[C@@H](CCCNC(=N)N)C(=O)N[C@@H](CC(C)C)C(=O)N[C@@H](CC(C)C)C(=O)N[C@@H](CC(C)C)C(=O)N[C@@H](CCC(=O)O)C(=O)N[C@@H](CCC(=O)O)C(=O)N[C@@H](C)C(N)=O [α-helical CRF] (H-DLTFHLLREMLEMAKAEQEAEQAALNRLLLEEA-NH2)
IC50: 25.7 ± 2.9 nM
